# This is one part of the list. The data scatter; read single values as rough.
# By UniProt entry, the sequences of proteins in these tests, tags left out. Where a name states a change or a piece, a line headed by the entry shows the natural chain unless it says otherwise.
# UniProt Q9Y243: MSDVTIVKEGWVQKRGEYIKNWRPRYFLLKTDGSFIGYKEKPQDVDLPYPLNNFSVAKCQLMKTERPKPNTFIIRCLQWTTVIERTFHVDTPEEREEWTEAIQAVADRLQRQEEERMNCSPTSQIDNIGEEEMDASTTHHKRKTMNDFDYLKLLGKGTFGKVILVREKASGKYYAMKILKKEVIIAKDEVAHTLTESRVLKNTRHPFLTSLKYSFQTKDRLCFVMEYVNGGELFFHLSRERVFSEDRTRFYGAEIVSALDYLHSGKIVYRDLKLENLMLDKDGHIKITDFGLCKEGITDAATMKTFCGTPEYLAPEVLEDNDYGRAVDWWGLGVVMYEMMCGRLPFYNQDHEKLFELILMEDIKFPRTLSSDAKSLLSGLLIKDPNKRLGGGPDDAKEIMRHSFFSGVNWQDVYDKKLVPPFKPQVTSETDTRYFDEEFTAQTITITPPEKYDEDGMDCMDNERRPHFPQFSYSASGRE
# Target: T1, AKT3 C119 (UniProt Q9Y243)
# T1 sequence (whole entry): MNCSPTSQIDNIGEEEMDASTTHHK
# Assay: log2 mean competition ratio of IA-DTB cysteine labelling (DMSO/compound) (log2 ratio); higher = stronger cysteine engagement by compound
# Conditions: 50 µM; treatment time: 4 h; cell line lysate: HEK293T
# Experimental: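 IA-DTB competitive cysteine chemoproteomics in HEK293T RIPA lysate. Lysates were treated with compound 29 or 30 at 50 or 200 µM for 4 h, then IA-DTB (500 µM, 1 h), trypsin-digested, NeutrAvidin-enriched and analysed by diaPASEF. Competition ratio = intensity DMSO / intensity compound (n=4 treated, n=64 DMSO); binding: mean log2 CR ≥ 1 and p ≤ 0.05 plus QC filters. Target is the cysteine site.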
row,SMILES,log2 mean competition ratio
1,O=C(CCl)N[C@H]1CCCc2ccccc21,0.136
2,O=C(CCl)N[C@@H]1CCCc2ccccc21,-0.0569

# Same assay, conditions: 200 µM; treatment time: 4 h; cell line lysate: HEK293T
row,SMILES,log2 mean competition ratio
1,O=C(CCl)N[C@H]1CCCc2ccccc21,-0.29
2,O=C(CCl)N[C@@H]1CCCc2ccccc21,-0.256
